PMC11193767
These are yes or no findings as the source states them, for the method shown. In cells and extracts the contact can be indirect. These calls come from enrichment with a bait or labelling near it, and not all partners need be listed. Sequences can lack the tags named with a protein.

Chains of the proteins cited; added tags and fusions are not shown.
UniProt Q8IWT6: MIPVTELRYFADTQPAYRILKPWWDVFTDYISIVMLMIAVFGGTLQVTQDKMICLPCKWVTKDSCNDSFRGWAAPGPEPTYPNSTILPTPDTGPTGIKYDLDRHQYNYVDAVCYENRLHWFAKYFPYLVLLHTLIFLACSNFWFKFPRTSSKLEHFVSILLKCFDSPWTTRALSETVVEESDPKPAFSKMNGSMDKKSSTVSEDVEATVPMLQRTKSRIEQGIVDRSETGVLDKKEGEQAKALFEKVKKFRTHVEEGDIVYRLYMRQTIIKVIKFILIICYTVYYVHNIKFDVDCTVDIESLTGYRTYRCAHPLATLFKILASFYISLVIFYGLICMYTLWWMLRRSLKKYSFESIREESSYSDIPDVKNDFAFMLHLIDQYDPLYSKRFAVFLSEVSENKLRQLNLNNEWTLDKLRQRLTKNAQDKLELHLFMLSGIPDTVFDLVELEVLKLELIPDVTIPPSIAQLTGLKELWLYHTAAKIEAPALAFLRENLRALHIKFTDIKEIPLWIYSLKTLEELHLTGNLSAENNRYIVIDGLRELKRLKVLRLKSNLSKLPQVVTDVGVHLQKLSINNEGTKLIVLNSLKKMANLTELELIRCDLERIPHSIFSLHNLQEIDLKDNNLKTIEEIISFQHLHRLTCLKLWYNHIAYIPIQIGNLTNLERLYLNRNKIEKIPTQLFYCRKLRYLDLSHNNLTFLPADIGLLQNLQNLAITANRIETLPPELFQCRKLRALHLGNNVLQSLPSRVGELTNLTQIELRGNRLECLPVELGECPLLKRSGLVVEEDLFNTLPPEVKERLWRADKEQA

B1: Active breakpoint cluster region-related protein (protein, UniProt Q12979-1 1-859)
chain: MEPLSHRGLPRLSWIDTLYSNFSYGTDEYDGEGNEEQKGPPEGSETMPYIDESPTMSPQLSARSQGGGDGVSPTPPEGLAPGVEAGKGLEMRKLVLSGFLASEEIYINQLEALLLPMKPLKATATTSQPVLTIQQIETIFYKIQDIYEIHKEFYDNLCPKVQQWDSQVTMGHLFQKLASQLGVYKAFVDNYKVALETAEKCSQSNNQFQKISEELKVKGPKDSKDSHTSVTMEALLYKPIDRVTRSTLVLHDLLKHTPVDHPDYPLLQDALRISQNFLSSINEDIDPRRTAVTTPKGETRQLVKDGFLVEVSESSRKLRHVFLFTDVLLCAKLKKTSAGKHQQYDCKWYIPLADLVFPSPEESEASPQVHPFPDHELEDMKMKISALKSEIQKEKANKGQSRAIERLKKKMFENEFLLLLNSPTIPFRIHNRNGKSYLFLLSSDYERSEWREAIQKLQKKDLQAFVLSSVELQVLTGSCFKLRTVHNIPVTSNKDDDESPGLYGFLHVIVHSAKGFKQSANLYCTLEVDSFGYFVSKAKTRVFRDTAEPKWDEEFEIELEGSQSLRILCYEKCYDKTKVNKDNNEIVDKIMGKGQIQLDPQTVETKNWHTDVIEMNGIKVEFSMKFTSRDMSLKRTPSKKQTGVFGVKISVVTKRERSKVPYIVRQCVEEVEKRGIEEVGIYRISGVATDIQALKAVFDANNKDILLMLSDMDINAIAGTLKLYFRELPEPLLTDRLYPAFMEGIALSDPAAKENCMMHLLRSLPDPNLITFLFLLEHLKRVAEKEPINKMSLHNLATVFGPTLLRPSEVESKAHLTSAADIWSHDVMAQVQVLLYYLQHPPISFAELKRNTLYFSTDV
B2: Epidermal growth factor receptor substrate 15 (protein, UniProt P42566-1 1-896)
chain: MAAAAQLSLTQLSSGNPVYEKYYRQVDTGNTGRVLASDAAAFLKKSGLPDLILGKIWDLADTDGKGILNKQEFFVALRLVACAQNGLEVSLSSLNLAVPPPRFHDTSSPLLISGTSAAELPWAVKPEDKAKYDAIFDSLSPVNGFLSGDKVKPVLLNSKLPVDILGRVWELSDIDHDGMLDRDEFAVAMFLVYCALEKEPVPMSLPPALVPPSKRKTWVVSPAEKAKYDEIFLKTDKDMDGFVSGLEVREIFLKTGLPSTLLAHIWSLCDTKDCGKLSKDQFALAFHLISQKLIKGIDPPHVLTPEMIPPSDRASLQKNIIGSSPVADFSAIKELDTLNNEIVDLQREKNNVEQDLKEKEDTIKQRTSEVQDLQDEVQRENTNLQKLQAQKQQVQELLDELDEQKAQLEEQLKEVRKKCAEEAQLISSLKAELTSQESQISTYEEELAKAREELSRLQQETAELEESVESGKAQLEPLQQHLQDSQQEISSMQMKLMEMKDLENHNSQLNWCSSPHSILVNGATDYCSLSTSSSETANLNEHVEGQSNLESEPIHQESPARSSPELLPSGVTDENEVTTAVTEKVCSELDNNRHSKEEDPFNVDSSSLTGPVADTNLDFFQSDPFVGSDPFKDDPFGKIDPFGGDPFKGSDPFASDCFFRQSTDPFATSSTDPFSAANNSSITSVETLKHNDPFAPGGTVVAASDSATDPFASVFGNESFGGGFADFSTLSKVNNEDPFRSATSSSVSNVVITKNVFEETSVKSEDEPPALPPKIGTPTRPCPLPPGKRSINKLDSPDPFKLNDPFQPFPGNDSPKEKDPEIFCDPFTSATTTTNKEADPSNFANFSAYPSEEDMIEWAKRESEREEEQRLARLNQQEQEDLELAIALSKSEISEA
B3: Protein EFR3 homolog B (protein, UniProt Q9Y2G0-1 1-817)
chain: MYGVCGCCGALRPRYKRLVDNIFPEDPEDGLVKTNMEKLTFYALSAPEKLDRIGAYLSERLIRDVGRHRYGYVCIAMEALDQLLMACHCQSINLFVESFLKMVAKLLESEKPNLQILGTNSFVKFANIEEDTPSYHRSYDFFVSRFSEMCHSSHDDLEIKTKIRMSGIKGLQGVVRKTVNDELQANIWDPQHMDKIVPSLLFNLQHVEEAESRSPSPLQAPEKEKESPAELAERCLRELLGRAAFGNIKNAIKPVLIHLDNHSLWEPKVFAIRCFKIIMYSIQPQHSHLVIQQLLGHLDANSRSAATVRAGIVEVLSEAAVIAATGSVGPTVLEMFNTLLRQLRLSIDYALTGSYDGAVSLGTKIIKEHEERMFQEAVIKTVGSFASTLPTYQRSEVILFIMSKVPRPSLHQAVDTGRTGENRNRLTQIMLLKSLLQVSTGFQCNNMMSALPSNFLDRLLSTALMEDAEIRLFVLEILISFIDRHGNRHKFSTISTLSDISVLKLKVDKCSRQDTVFMKKHSQQLYRHIYLSCKEETNVQKHYEALYGLLALISIELANEEVVVDLIRLVLAVQDVAQVNEENLPVYNRCALYALGAAYLNLISQLTTVPAFCQHIHEVIETRKKEAPYMLPEDVFVERPRLSQNLDGVVIELLFRQSKISEVLGGSGYNSDRLCLPYIPQLTDEDRLSKRRSIGETISLQVEVESRNSPEKEERVPAEEITYETLKKAIVDSVAVEEQERERRRQVVEKFQKAPFEEIAAHCGARASLLQSKLNQIFEITIRPPPSPSGTITAAYGQPQNHSIPVYEMKFPDLCVY
B4: Extended synaptotagmin-1 (protein, UniProt Q9BSJ8-2 1-1114)
chain: MERSPGEGPSPSPMDQPSAPSDPTDQPPAAHAKPDPGSGGQPAGPGAAGEALAVLTSFGRRLLVLIPVYLAGAVGLSVGFVLFGLALYLGWRRVRDEKERSLRAARQLLDDEEQLTAKTLYMSHRELPAWVSFPDVEKAEWLNKIVAQVWPFLGQYMEKLLAETVAPAVRGSNPHLQTFTFTRVELGEKPLRIIGVKVHPGQRKEQILLDLNISYVGDVQIDVEVKKYFCKAGVKGMQLHGVLRVILEPLIGDLPFVGAVSMFFIRRPTLDINWTGMTNLLDIPGLSSLSDTMIMDSIAAFLVLPNRLLVPLVPDLQDVAQLRSPLPRGIIRIHLLAARGLSSKDKYVKGLIEGKSDPYALVRLGTQTFCSRVIDEELNPQWGETYEVMVHEVPGQEIEVEVFDKDPDKDDFLGRMKLDVGKVLQASVLDDWFPLQGGQGQVHLRLEWLSLLSDAEKLEQVLQWNWGVSSRPDPPSAAILVVYLDRAQDLPMVTSELYPPQLKKGNKEPNPMVQLSIQDVTQESKAVYSTNCPVWEEAFRFFLQDPQSQELDVQVKDDSRALTLGALTLPLARLLTAPELILDQWFQLSSSGPNSRLYMKLVMRILYLDSSEICFPTVPGCPGAWDVDSENPQRGSSVDAPPRPCHTTPDSQFGTEHVLRIHVLEAQDLIAKDRFLGGLVKGKSDPYVKLKLAGRSFRSHVVREDLNPRWNEVFEVIVTSVPGQELEVEVFDKDLDKDDFLGRCKVRLTTVLNSGFLDEWLTLEDVPSGRLHLRLERLTPRPTAAELEEVLQVNSLIQTQKSAELAAALLSIYMERAEDLPLRKGTKHLSPYATLTVGDSSHKTKTISQTSAPVWDESASFLIRKPHTESLELQVRGEGTGVLGSLSLPLSELLVADQLCLDRWFTLSSGQGQVLLRAQLGILVSQHSGVEAHSHSYSHSSSSLSEEPELSGGPPHITSSAPELRQRLTHVDSPLEAPAGPLGQVKLTLWYYSEERKLVSIVHGCRSLRQNGRDPPDPYVSLLLLPDKNRGTKRRTSQKKRTLSPEFNERFEWELPLDEAQRRKLDVSVKSNSSFMSRERELLGKVQLDLAETDLSQGVARWYDLMDNKDKGSS
B5: Fibronectin type-III domain-containing protein 3A (protein, UniProt Q9Y2H6-1 1-1198)
chain: MAEHPPLLDTTQILSSDISLLSAPIVSADGTQQVILVQVNPGEAFTIRREDGQFQCITGPAQVPMMSPNGSVPPIYVPPGYAPQVIEDNGVRRVVVVPQAPEFHPGSHTVLHRSPHPPLPGFIPVPTMMPPPPRHMYSPVTGAGDMTTQYMPQYQSSQVYGDVDAHSTHGRSNFRDERSSKTYERLQKKLKDRQGTQKDKMSSPPSSPQKCPSPINEHNGLIKGQIAGGINTGSAKIKSGKGKGGTQVDTEIEEKDEETKAFEALLSNIVKPVASDIQARTVVLTWSPPSSLINGETDESSVPELYGYEVLISSTGKDGKYKSVYVGEETNITLNDLKPAMDYHAKVQAEYNSIKGTPSEAEIFTTLSCEPDIPNPPRIANRTKNSLTLQWKAPSDNGSKIQNFVLEWDEGKGNGEFCQCYMGSQKQFKITKLSPAMGCKFRLSARNDYGTSGFSEEVLYYTSGCAPSMPASPVLTKAGITWLSLQWSKPSGTPSDEGISYILEMEEETSGYGFKPKYDGEDLAYTVKNLRRSTKYKFKVIAYNSEGKSNPSEVVEFTTCPDKPGIPVKPSVKGKIHSHSFKITWDPPKDNGGATINKYVVEMAEGSNGNKWEMIYSGATREHLCDRLNPGCFYRLRVYCISDGGQSAVSESLLVQTPAVPPGPCLPPRLQGRPKAKEIQLRWGPPLVDGGSPISCYSVEMSPIEKDEPREVYQGSEVECTVSSLLPGKTYSFRLRAANKMGFGPFSEKCDITTAPGPPDQCKPPQVTCRSATCAQVNWEVPLSNGTDVTEYRLEWGGVEGSMQICYCGPGLSYEIKGLSPATTYYCRVQALSVVGAGPFSEVVACVTPPSVPGIVTCLQEISDDEIENPHYSPSTCLAISWEKPCDHGSEILAYSIDFGDKQSLTVGKVTSYIINNLQPDTTYRIRIQALNSLGAGPFSHMIKLKTKPLPPDPPRLECVAFSHQNLKLKWGEGTPKTLSTDSIQYHLQMEDKNGRFVSLYRGPCHTYKVQRLNESTSYKFCIQACNEAGEGPLSQEYIFTTPKSVPAALKAPKIEKVNDHICEITWECLQPMKGDPVIYSLQVMLGKDSEFKQIYKGPDSSFRYSSLQLNCEYRFRVCAIRQCQDSLGHQDLVGPYSTTVLFISQRTEPPASTNRDTVESTRTRRALSDEQCAAVILVLFAFFSILIAFIIQYFVIK
B6: Dehydrogenase/reductase SDR family member 13 (protein, UniProt Q6UX07-1 26-377)
chain: PPCGGMGNLRGRTAVVTGANSGIGKMTALELARRGARVVLACRSQERGEAAAFDLRQESGNNEVIFMALDLASLASVRAFATAFLSSEPRLDILIHNAGISSCGRTREAFNLLLRVNHIGPFLLTHLLLPCLKACAPSRVVVVASAAHCRGRLDFKRLDRPVVGWRQELRAYADTKLANVLFARELANQLEATGVTCYAAHPGPVNSELFLRHVPGWLRPLLRPLAWLVLRAPRGGAQTPLYCALQEGIEPLSGRYFANCHVEEVPPAARDDRAAHRLWEASKRLAGLGPGEDAEPDEDPQSEDSEAPSSLSTPHPEEPTVSQPYPSPQSSPDLSKMTHRIQAKVEPEIQLS
B7: Protein EFR3 homolog A (protein, UniProt Q14156-1 1-821)
chain: MPTRVCCCCSALRPRYKRLVDNIFPEDPKDGLVKTDMEKLTFYAVSAPEKLDRIGSYLAERLSRDVVRHRSGYVLIAMEALDQLLMACHSQSIKPFVESFLHMVAKLLESGEPKLQVLGTNSFVKFANIEEDTPSYHRRYDFFVSRFSAMCHSCHSDPEIRTEIRIAGIRGIQGVVRKTVNDELRATIWEPQHMDKIVPSLLFNMQKIEEVDSRIGPPSSPSATDKEENPAVLAENCFRELLGRATFGNMNNAVRPVFAHLDHHKLWDPNEFAVHCFKIIMYSIQAQYSHHVIQEILGHLDARKKDAPRVRAGIIQVLLEAVAIAAKGSIGPTVLEVFNTLLKHLRLSVEFEANDLQGGSVGSVNLNTSSKDNDEKIVQNAIIQTIGFFGSNLPDYQRSEIMMFIMGKVPVFGTSTHTLDISQLGDLGTRRIQIMLLRSLLMVTSGYKAKTIVTALPGSFLDPLLSPSLMEDYELRQLVLEVMHNLMDRHDNRAKLRGIRIIPDVADLKIKREKICRQDTSFMKKNGQQLYRHIYLGCKEEDNVQKNYELLYTSLALITIELANEEVVIDLIRLAIALQDSAIINEDNLPMFHRCGIMALVAAYLNFVSQMIAVPAFCQHVSKVIEIRTMEAPYFLPEHIFRDKCMLPKSLEKHEKDLYFLTNKIAESLGGSGYSVERLSVPYVPQVTDEDRLSRRKSIVDTVSIQVDILSNNVPSDDVVSNTEEITFEALKKAIDTSGMEEQEKEKRRLVIEKFQKAPFEEIAAQCESKANLLHDRLAQILELTIRPPPSPSGTLTITSGHAQYQSVPVYEMKFPDLCVY

What follows are binders tested against LRRC8A-BirA*-HA fusion protein (human) (UniProt Q8IWT6) (assay: proximity labelling; BioID: HEK293 cells stably expressing LRRC8A-BirA*-HA (two clones), 50 uM biotin 24 h, RIPA lysis, streptavidin bead pull-down of biotinylated proteins, TMT labelling and LC-MS/MS; hits: FDR <= 0.05 and fold change >= 2 against the no-biotin control).

binding	Binder
binds	B1
binds	B2
binds	B3
binds	B4
binds	B5
binds	B6
binds	B7
